Results published in PMC12217353.
No constants are given. Whether binding was seen depends on the method and setting. Binding seen in cells or lysates may run through a third protein. Binding can be weak; no strength is given.

Amino acid sequences for entries named in this document (tags omitted). A change or cut given only in a name is not applied to a line headed by its entry.
UniProt P13569: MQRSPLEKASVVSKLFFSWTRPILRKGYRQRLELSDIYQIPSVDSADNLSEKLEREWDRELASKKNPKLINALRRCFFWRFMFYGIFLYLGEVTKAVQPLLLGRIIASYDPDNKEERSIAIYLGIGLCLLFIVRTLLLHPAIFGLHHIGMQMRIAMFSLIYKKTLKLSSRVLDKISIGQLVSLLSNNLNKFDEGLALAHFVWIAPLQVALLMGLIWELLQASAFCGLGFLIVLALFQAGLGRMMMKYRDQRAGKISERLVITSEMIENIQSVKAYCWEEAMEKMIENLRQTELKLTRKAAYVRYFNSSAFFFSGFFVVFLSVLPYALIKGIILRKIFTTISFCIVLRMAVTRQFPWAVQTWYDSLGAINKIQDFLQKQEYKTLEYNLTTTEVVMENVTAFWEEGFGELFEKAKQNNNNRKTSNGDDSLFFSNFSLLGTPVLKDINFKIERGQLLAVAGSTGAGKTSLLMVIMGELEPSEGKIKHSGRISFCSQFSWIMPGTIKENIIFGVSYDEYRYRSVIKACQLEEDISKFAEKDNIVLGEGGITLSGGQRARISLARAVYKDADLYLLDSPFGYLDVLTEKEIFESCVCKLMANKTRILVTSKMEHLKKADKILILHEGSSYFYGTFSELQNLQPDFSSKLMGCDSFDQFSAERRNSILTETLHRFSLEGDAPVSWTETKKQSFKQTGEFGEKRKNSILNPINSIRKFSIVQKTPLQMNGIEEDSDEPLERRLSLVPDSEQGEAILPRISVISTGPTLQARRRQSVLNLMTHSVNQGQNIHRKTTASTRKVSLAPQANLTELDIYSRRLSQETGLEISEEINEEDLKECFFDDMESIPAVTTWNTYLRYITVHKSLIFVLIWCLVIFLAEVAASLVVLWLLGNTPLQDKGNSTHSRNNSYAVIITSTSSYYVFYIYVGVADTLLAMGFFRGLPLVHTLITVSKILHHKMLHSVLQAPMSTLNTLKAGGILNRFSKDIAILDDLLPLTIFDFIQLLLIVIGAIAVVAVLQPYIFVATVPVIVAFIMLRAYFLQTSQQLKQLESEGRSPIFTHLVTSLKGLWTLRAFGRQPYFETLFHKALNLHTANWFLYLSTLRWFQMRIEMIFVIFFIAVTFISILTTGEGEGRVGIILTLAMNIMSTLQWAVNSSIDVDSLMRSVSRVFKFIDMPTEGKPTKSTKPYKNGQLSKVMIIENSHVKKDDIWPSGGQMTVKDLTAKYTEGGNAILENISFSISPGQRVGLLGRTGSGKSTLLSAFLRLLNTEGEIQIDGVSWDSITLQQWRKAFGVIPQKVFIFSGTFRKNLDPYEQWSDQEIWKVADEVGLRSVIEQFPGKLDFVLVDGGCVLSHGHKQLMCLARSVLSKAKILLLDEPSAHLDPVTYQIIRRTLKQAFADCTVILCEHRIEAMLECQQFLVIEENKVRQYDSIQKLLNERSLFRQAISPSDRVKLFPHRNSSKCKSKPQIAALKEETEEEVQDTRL
UniProt A0FGR9: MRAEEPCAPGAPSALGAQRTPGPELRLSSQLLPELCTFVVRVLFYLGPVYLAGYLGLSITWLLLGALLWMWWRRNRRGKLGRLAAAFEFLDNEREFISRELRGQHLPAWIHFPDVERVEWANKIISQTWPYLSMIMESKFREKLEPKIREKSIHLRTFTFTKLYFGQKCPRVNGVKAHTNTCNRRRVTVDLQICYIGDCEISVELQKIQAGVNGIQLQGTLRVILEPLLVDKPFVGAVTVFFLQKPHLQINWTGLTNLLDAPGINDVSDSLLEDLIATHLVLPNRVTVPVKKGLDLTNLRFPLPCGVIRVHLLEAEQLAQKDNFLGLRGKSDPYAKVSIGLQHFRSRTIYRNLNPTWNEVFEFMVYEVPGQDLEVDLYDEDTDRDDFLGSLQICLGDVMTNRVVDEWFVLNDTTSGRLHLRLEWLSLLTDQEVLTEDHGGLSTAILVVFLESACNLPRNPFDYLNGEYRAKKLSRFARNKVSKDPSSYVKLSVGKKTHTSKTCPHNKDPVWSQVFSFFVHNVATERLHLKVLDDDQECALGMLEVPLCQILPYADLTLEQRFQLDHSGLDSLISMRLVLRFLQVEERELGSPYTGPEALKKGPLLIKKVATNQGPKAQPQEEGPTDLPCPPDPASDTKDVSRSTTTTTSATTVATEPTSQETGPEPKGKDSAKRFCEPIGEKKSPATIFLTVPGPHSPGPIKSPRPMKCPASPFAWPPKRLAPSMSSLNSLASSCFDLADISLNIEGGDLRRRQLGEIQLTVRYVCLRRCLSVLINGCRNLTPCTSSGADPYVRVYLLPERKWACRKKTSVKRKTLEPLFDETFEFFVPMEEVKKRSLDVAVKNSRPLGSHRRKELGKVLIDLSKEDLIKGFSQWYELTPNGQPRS

Target: CFTR-GFP (UniProt P13569)
Assay: co-IP; lysates of transfected HEK293T cells (PBS with 1% Triton X-100, phosphatase and protease inhibitors, pH 7.4); antibodies overnight at 4 °C, Sepharose beads for 4 h, three washes, blots; some cells co-expressing E-Syt3 or E3C2C, or depleted of PI(4,5)P2 (FRB + FKBP-5PIPase, 0.5 µM rapamycin for 8 min)

- binding: binds weakly
Substance: E-Syt3(R852A/R853A/K854A) (from UniProt A0FGR9)
